Measurements published in PubChem BioAssay AID504834 (National Center for Advancing Translational Sciences (NCATS), 2011).
In all, about 320,000 compounds went through this assay and about 22,000 (6.9%) were called active. This list was built around the results that the source calls inconclusive (neither active nor inactive); the mix of calls is not that of the screen. Calls come from the whole dose curve; as a rule, active = well fitted inhibition curve with a large enough effect; inconclusive = small, poorly fitted or top-dose-only effect, or another doubt; inactive = no such curve, though single readings can be large or run the other way. A potency beside an inconclusive call is a rough fit, not a confirmed value.

Assay: Primary qHTS for delayed death inhibitors of the malarial parasite plastid, 96 hour incubation
Settings: P. falciparum luciferase reporter growth; series mostly up to 28.7 µM
Outline: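 Readout is luminescence from an integrated firefly luciferase in P. falciparum. Red cells, 2% hematocrit and 0.05% parasitemia final, were cultured with compound through two parasite generations (96 hours) at 37 C, 5% CO2.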
Potency is the fitted concentration of half-maximal effect.

Row | Structure (SMILES) | Potency
1 | Cc1ccc(Cl)c(OCC(=O)N2CCc3ccccc3C2)c1 | inactive
2 | CCc1noc(C)c1C(=O)Nc1ccc(F)c(F)c1F | inactive
3 | COc1ccccc1NC(=O)CSc1nnc(-c2ccccc2)o1 | inconclusive: 16.5 µM [inhibitor, single point]
4 | Cc1sc2nc(SCc3ccccc3)n(Cc3ccco3)c(=O)c2c1C | inactive
5 | Cc1cc(C)cc(NC(=O)Cn2nnc3ccccc3c2=O)c1 | inactive
6 | Cc1ccccc1OCC(=O)NCC(=O)N/N=C/c1cccc([N+](=O)[O-])c1 | inactive
7 | CCOc1ccc(S(=O)(=O)N2CCCC(C(=O)N3CCOCC3)C2)cc1C (stereo not drawn) | inactive
8 | COc1cccc(CNC(=O)c2ccccc2-c2ccccc2)c1 | inconclusive: 18.5 µM [inhibitor, single point]
9 | COc1cc(/C=N/NC(=O)c2cccc3ccccc23)cc(OC)c1O | inconclusive: 13.1 µM [inhibitor, partial curve, poor fit]
10 | COc1ccc(O)c(C(=O)c2cnn(-c3ccc(Cl)cc3)c2)c1 | inconclusive: 18.5 µM [inhibitor, single point]
11 | CC1CN(/C=C/C=O)C(C)CC1OC(=O)c1ccccc1 (stereo not drawn) | inconclusive: 9.28 µM [inhibitor, partial curve, poor fit]
12 | CCc1ccc(-n2c(SCC(=O)Nc3cccc(S(=O)(=O)NC4=NCCCCC4)c3)nc3ccccc3c2=O)cc1 | inconclusive: 11.7 µM [inhibitor, partial curve, poor fit]
13 | COc1ccc(CCNC(=O)C2CCCN(c3nn4c(=O)cc(C)nc4s3)C2)cc1OC (stereo not drawn) | inconclusive: 11.7 µM [inhibitor, partial curve, poor fit]
14 | COc1ccccc1OCC(=O)N(Cc1nc(-c2ccc(Cl)cc2)no1)C(C)C | active: 4.15 µM
15 | CCN(Cc1ccccc1)C(=O)COC(=O)c1cc(S(=O)(=O)Nc2c(C)n(C)n(-c3ccccc3)c2=O)ccc1C | inconclusive: 11.7 µM [inhibitor, partial curve]
16 | CCCCOC(=O)NS(=O)(=O)c1sc(CC(C)C)cc1-c1ccc(Cn2c(CC)nc3c(C)cc(C)nc32)cc1 | inconclusive: 2.33 µM [inhibitor, partial curve, poor fit]
17 | COc1cccc(CNC(=O)CNC(=O)N2CC(=O)Nc3ccccc32)c1 | inconclusive: 18.5 µM [inhibitor, single point]
18 | CC[C@H](C)C(C(=O)N1CCN(C(=O)OC(C)(C)C)CC1)n1cc(C(CC(C)C)NC(=O)OC(C)(C)C)nn1 (stereo partly drawn) | active: 2.33 µM
19 | CC1CN=C(N(C(=O)Nc2ccccc2)c2ccc(F)cc2)S1 (stereo not drawn) | inconclusive: 6.57 µM [inhibitor, partial curve, poor fit]
20 | O=C(Cc1ccccc1)NC(Cc1ccc(Cl)cc1)C(=O)O (stereo not drawn) | inactive
21 | O=C(O)CCCN1C(=O)/C(=C/C=C/c2ccco2)SC1=S | inactive
22 | C/C(CC(=O)Nc1ccc(Cl)c(C(F)(F)F)c1)=N\NC(=O)c1cc2ccccc2cc1O | inconclusive: 18.5 µM [inhibitor, single point]
23 | CCOc1ccc(C(=O)Nc2ccc(N3CCN(C(C)=O)CC3)cc2)cc1[N+](=O)[O-] | inactive

Grouped by structure: the compounds so far containing a furan ring, fused or not
Row | Structure (SMILES) | Potency
4 | Cc1sc2nc(SCc3ccccc3)n(Cc3ccco3)c(=O)c2c1C | inactive
21 | O=C(O)CCCN1C(=O)/C(=C/C=C/c2ccco2)SC1=S | inactive

The list goes on:

Row | Structure (SMILES) | Potency
24 | OCC[C@@H]1C[C@H](O)[C@@H](O)[C@@]2(CCc3ccccc3CO2)O1 | inactive
25 | O=C(CSc1nc2[nH]c(=O)cc(O)c2s1)Nc1cccc(Br)c1 | inconclusive: 13.1 µM [inhibitor, partial curve, poor fit]
26 | Cc1ccc(-c2nnc(-c3ccccc3)c(-c3ccccc3)n2)cc1 | inconclusive: 13.1 µM [inhibitor, single point]
27 | COc1ccc(C(=O)c2coc3ccc(O)c(CN(C)C)c23)cc1 | inconclusive: 18.5 µM [inhibitor, single point]
28 | O=C1CCCN1c1ccc(S(=O)(=O)Nc2cccnc2)cc1 | inconclusive: 18.5 µM [inhibitor, single point]
29 | COc1ccc(CCNC(=O)c2ccccc2OCc2ccccc2)cc1 | inconclusive: 18.5 µM [inhibitor, single point]
30 | CC(NC(=O)c1ccc(OC2CCN(C(=O)c3cccnc3)CC2)cc1)C1CC1 (stereo not drawn) | active: 11.7 µM
31 | Cc1cccc(OCCC(=O)Nc2ccc(N3CCOCC3)cc2N2CCOCC2)c1 | inconclusive: 9.28 µM [inhibitor, partial curve]
32 | N#Cc1ccccc1S(=O)(=O)N1CCN(C(=O)c2cc(=O)[nH]c3ccccc23)CC1 | inconclusive: 9.28 µM [inhibitor, single point]
33 | O=[N+]([O-])c1ccc(C[n+]2cccc3ccccc32)cc1 | inconclusive: 2.33 µM [inhibitor, full curve, poor fit]
34 | O=C(Nc1cn(-c2ccccc2)nc1-c1ccc(Cl)cc1)c1ccccc1 | inconclusive: 0.928 µM [inhibitor, partial curve, poor fit]
35 | CN1CCN(c2ccc([N+](=O)[O-])c(Sc3nncn3C)c2)CC1 | inconclusive: 4.15 µM [inhibitor, single point]
36 | CCOC(=O)c1c(C)oc2c1cc(NS(=O)(=O)c1ccc(C(=O)O)cc1)c1ccccc12 | inactive
37 | COc1cc2c(cc1Cl)/C(=C\CCN(C)C)c1ccccc1S2 | active: 10.4 µM
38 | N#CCCN(C(=O)COC(=O)CCNS(=O)(=O)c1ccccc1)c1ccccc1 | inactive
39 | C=CCN1C(=O)C2(OCCCO2)c2cccc(C)c21 | inactive
40 | COc1ccccc1-c1ccc(=O)n(CC(=O)NCc2ccco2)n1 | inconclusive: 14.7 µM [inhibitor, partial curve]
41 | Cc1cccc(Cn2cccc2/C=C2/C(=N)N3C=CSC3=NC2=O)c1 | inconclusive: 11.7 µM [inhibitor, partial curve, poor fit]
42 | CCc1ccc(N(C(=O)c2csnn2)C(C(=O)NC2CCCCC2)c2ccncc2)cc1 (stereo not drawn) | inconclusive: 13.1 µM [inhibitor, single point]
43 | O=C(N/N=C\c1cccc(F)c1)c1ccc(Cn2cc(Br)c([N+](=O)[O-])n2)o1 | inconclusive: 8.28 µM [inhibitor, single point]
44 | Cc1ccc2nc(-c3ccccc3)cc(C(=O)NCCCn3ccnc3)c2c1 | inconclusive: 18.5 µM [inhibitor, single point]
45 | CS(=O)(=O)Nc1cccc(C2=NN(C(=O)c3ccc(F)cc3)C(c3cccs3)C2)c1 (stereo not drawn) | inactive
46 | Cn1c(Oc2ccc3c(c2)OCO3)nc2c1c(=O)n(Cc1ccccc1)c(=O)n2C | inconclusive: 0.0026 µM [inhibitor, full curve, poor fit]

Row | Structure (SMILES) | Potency
47 | CNC(=O)Cn1nc(-c2ccc(C)c(S(=O)(=O)N(C)C)c2)c2ccccc2c1=O | active: 9.28 µM
48 | CCN1CCN(Cc2c(O)ccc3c2O/C(=C\C=C\c2ccccc2)C3=O)CC1 | inconclusive: 0.262 µM [inhibitor, partial curve, poor fit]
49 | COc1ccc2nc(SCC(C)=O)c(C#N)cc2c1 | inactive
50 | CCc1nc2n[nH]c(N)c2c2c1CSC(C)(C)C2 | inconclusive: 18.5 µM [inhibitor, single point]
51 | CCOc1ccc(CN(C)C(=O)CNC(=O)C2CCCCC2)cc1OC | inconclusive: 0.104 µM [inhibitor, full curve, poor fit]
52 | CCOC(=O)C1CCN(CC(O)COCc2ccccc2)CC1 (stereo not drawn) | inactive
53 | CC(=O)NCCC(=O)N1CCc2c([nH]c3ccccc23)C1c1cccc(C)c1 (stereo not drawn) | inconclusive: 4.15 µM [inhibitor, full curve, poor fit]
54 | O=C(CN1C(=O)COc2ccc(S(=O)(=O)N3CCCCC3)cc21)NCc1ccc(F)cc1 | inconclusive: 13.1 µM [inhibitor, single point]
55 | CC(C)(C)NC(=O)NC(=O)COC(=O)C1c2ccccc2Oc2ccccc21 | inactive
56 | Cc1ccc(CNC(=O)CCC2CCCN(C(=O)CCC(F)(F)F)C2)o1 (stereo not drawn) | active: 8.28 µM
57 | CC(C)(C)C1CCC(=NNC(=S)NCc2ccccc2)CC1 (stereo not drawn) | inconclusive: 18.5 µM [inhibitor, single point]
58 | CCC1(C)OC(c2ccccc2)=C/C(=C/C=C2C(=O)NC(=O)NC2=O)O1 (stereo not drawn) | inconclusive: 18.5 µM [inhibitor, single point]
59 | CCCCn1c(SCC(=O)c2ccc(O)c(O)c2)nc2ccsc2c1=O | inconclusive: 10.4 µM [inhibitor, single point]
60 | CC(NC(=O)C1CCN(C(=O)Nc2ccccc2)CC1)c1ccccc1Cl (stereo not drawn) | inconclusive: 18.5 µM [inhibitor, single point]
61 | COc1cc(C(F)(F)F)c(C(=O)N(C)Cc2cc(Cl)cc(Cl)c2)cn1 | inactive
62 | COc1ccccc1-n1c(=S)[nH]c2c(sc(=S)n2-c2ccccc2)c1=O | inconclusive: 18.5 µM [inhibitor, partial curve, poor fit]
63 | COc1ccc(NC(=O)COC(=O)CCCC2=NS(=O)(=O)c3ccccc3N2)cc1 | inconclusive: 13.1 µM [inhibitor, single point]
64 | O=C(COC(=O)Cc1c(Cl)cccc1Cl)Nc1ccccc1-c1ccccc1 | inactive
65 | OCC1(CC2CCCCO2)CCN(Cc2ccccc2-c2ccco2)CC1 (stereo not drawn) | inconclusive: 18.5 µM [inhibitor, single point]
66 | CCc1nc(SCC(=O)OC(C)C)c2ccccc2n1 | inconclusive: 2.08 µM [inhibitor, full curve, poor fit]
67 | CN(Cc1ccccc1)C(=O)c1nc2ccccn2c1CNCCCOc1cccnc1 | inconclusive: 16.5 µM [inhibitor, single point]
68 | Oc1cccc2ccc(N3CCOCC3)nc12 | inactive

Structures listed so far that have bromine, in the order listed:
Row | Structure (SMILES) | Potency
25 | O=C(CSc1nc2[nH]c(=O)cc(O)c2s1)Nc1cccc(Br)c1 | inconclusive: 13.1 µM [inhibitor, partial curve, poor fit]
43 | O=C(N/N=C\c1cccc(F)c1)c1ccc(Cn2cc(Br)c([N+](=O)[O-])n2)o1 | inconclusive: 8.28 µM [inhibitor, single point]
